# Article PMC6282620, “Structural and biochemical characterization of Plasmodium falciparum Hsp70‐x reveals functional versatility of its C‐terminal EEVN motif” (Proteins, 2018)
# These are yes or no findings as the source states them, for the method shown.
# Molecular target: PfHsp70‐x C‐terminal truncated version with a missing EEVN motif (Plasmodium falciparum)
# Assay: SPR; PfHsp70‐x or PfHsp70‐xT immobilised on ProteOn GLC chips, peptides as analytes at 1.25-20 nM, 25°C, PBS‐Tween pH 7.4, with 2 mM ATP; both purified
row,Binder,binding
1,ALLLMYRR [peptide ALLLMYRR],no binding (only with 2 mM ATP)
2,ANNNMYRR [peptide ANNNMYRR],no binding (only with 2 mM ATP)
